PubChem BioAssay AID720505 – Drosophila RNAi Screening Center, 2013

- Screen: 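Knock-downs that reduce calcium influx once internal stores are emptied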 (primary screen)
- Cell system: Drosophila S2R+ cells
- Knock-down reagent: long dsRNA against Drosophila genes
- Treatment: thapsigargin (2 µM) in calcium-free buffer to empty internal stores, then 2 mM calcium added back
- Measured: 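Stores emptied by 2 µM thapsigargin without calcium, then 2 mM calcium re-added; fluo-4 fluorescence followed by FLIPR in 384-well plates, per-well averaged endpoint, raw; two screen passes, some wells retested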
- Scale: calcium signal: higher = more calcium entry after store depletion
- Hit rule: 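About 1500 genes called as lowering calcium entry, by varying amounts, judged against per-plate control wells with STIM1 as positive and Rho1 as negative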
- Calls: active = called as lowering calcium entry; inactive = not called
In all, the deposit lists about 20,000 reagents; below is a random part of those that have a named target and a result. Of all reagents, about 2,100 (10%) were called active. 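Raw plate signals without normalisation; calls rest on control-based scores that were not deposited; replicate 2 separates called from uncalled poorly.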 Names joined by + are all predicted targets of the reagent. Reagent sequences are not shown. Not given: the amount of reagent, the time to read-out.

For CG43075 [DRSC19074] the deposit lists calcium signal, replicate 1 = 63.2; calcium signal, replicate 2 = 90.8; inactive.
Mppe [DRSC07296] gave calcium signal, replicate 1 = 169; calcium signal, replicate 2 = 139; inactive.
Against fal [DRSC11087], the values are calcium signal, replicate 1 = 130; calcium signal, replicate 2 = 76.1; inactive.
Knock-down of ttm3 [DRSC03736] resulted in: calcium signal, replicate 1 = 115; calcium signal, replicate 2 = 120; inactive.
Against CG6693 [DRSC16097], the entry reads calcium signal, replicate 1 = 113; calcium signal, replicate 2 = 116; inactive.
Against CG32425 [DRSC11739] the deposit lists calcium signal, replicate 1 = 98.1; calcium signal, replicate 2 = 140; inactive.
After knock-down of CG32425 [DRSC11764] the results were calcium signal, replicate 1 = 155; calcium signal, replicate 2 = 121; inactive.
With knock-down of NimA [DRSC01353] the results were calcium signal, replicate 1 = 105; calcium signal, replicate 2 = 95; inactive.
NimA [DRSC22170] scored calcium signal, replicate 1 = 84.9; calcium signal, replicate 2 = 231; inactive.
Against CG14258 [DRSC14753], the entry reads calcium signal, replicate 1 = 151; calcium signal, replicate 2 = 154; inactive.
With knock-down of NetA [DRSC20261], the screen gave calcium signal, replicate 1 = 104; calcium signal, replicate 2 = 113; inactive.
Against CR4575 [DRSC18372] the deposit lists calcium signal, replicate 1 = 284; calcium signal, replicate 2 = 113; inactive.
Silencing of CG30031 + deltaTry + gammaTry [DRSC07622] came out at: calcium signal, replicate 1 = 85.8; calcium signal, replicate 2 = 176; inactive.
Depletion of CG12985 [DRSC19505] gave: calcium signal, replicate 1 = 89.3; calcium signal, replicate 2 = 129; inactive.
Against CG13850 [DRSC14700], the entry reads calcium signal, replicate 1 = 185; calcium signal, replicate 2 = 203; inactive.
For CG14589 [DRSC04866] the deposit lists calcium signal, replicate 1 = 113; calcium signal, replicate 2 = 177; inactive.
Depletion of Meics [DRSC11413] came out at: calcium signal, replicate 1 = 126; calcium signal, replicate 2 = 116; inactive.
Silencing of Vm34Ca [DRSC03475] gave: calcium signal, replicate 1 = 102; calcium signal, replicate 2 = 113; inactive.
With knock-down of HisCl1 [DRSC14945], the record shows calcium signal, replicate 1 = 118; calcium signal, replicate 2 = 131; inactive.
